# From PubChem BioAssay AID445 (National Center for Advancing Translational Sciences (NCATS), 2006)
# The list shows a part of the results. These are further read-outs of the screen, such as a control signal, another cell line or another target. No call is given for them. The list favours compounds with an active or inconclusive main result. The note in brackets gives the kind of curve behind each potency; many fits are weak.
# Assay: IkB Signaling
# Conditions: ABC-DLBCL IkBa-CBG/CBR dual luciferase ratio (green luciferase fused to IkBa over red control in OCI-Ly3 lymphoma cells), 4 h; measured here: control luc red channel unless noted
# In short: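 In this assay, an IκBα–CBG68 fusion accumulates when IKK-driven degradation is blocked; native CBR normalizes for cell number. OCI-Ly3 cells were treated 4 h with compound and doxycycline, then green and red light read after Chroma-Glo addition.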
row,Compound,AC50
1,COC(=O)c1ccc(COC(=O)c2[nH]c(C)c(C(C)=O)c2C)o1,"25.1 µM [falling, partial curve]"
2,CC(=O)Nc1cccc(NC(=O)c2cc3ccccc3o2)c1,"5.01 µM [falling, partial curve]"
3,Cc1ccc(NC(=O)C2CCN(S(=O)(=O)c3ccc4c(c3)CCCC(=O)N4)CC2)c(Cl)c1,"39.8 µM [falling, single point]"
4,O=C(NCc1ccccc1Cl)c1ccc2c(c1)nnn2C1CCCC1,"0.0316 µM [rising, full curve, poor fit]"
5,O=C(NC1(C(F)(F)F)C(=O)Nc2c1c(=O)[nH]c(=O)n2CCc1ccccc1)c1ccc(Cl)cc1 (configuration not stated),"7.94 µM [rising, single point] [measured here: IkB-luc green channel]"
6,COc1ccc2c(c1)c1c(c(=O)n(Cc3ccccc3)c(=O)n1CC(=O)Nc1cc(C)cc(C)c1)n2C,"0.0794 µM [rising, full curve, poor fit]"
7,Cc1cc(C)cc(NC(=O)CSc2oc(-c3ccco3)nc2S(=O)(=O)c2ccccc2)c1,"12.6 µM [falling, partial curve]"
8,Cc1cccc(N2CCN(C(=O)c3ccc4c(c3)c(C)c(C)n4C)CC2)c1C,"25.1 µM [falling, partial curve]"
9,Cc1ccc(Cl)cc1NC(=O)CCCn1c(=O)c2cccn2c2ccccc21,"15.8 µM [falling, partial curve]"
10,Cc1ccc(CN2CCSc3ccc(C(=O)Nc4cc(C)cc(C)c4)cc32)cc1,"15.8 µM [falling, partial curve]"
11,CN1CCN(S(=O)(=O)c2ccc(NC(=O)c3csc4ccccc34)cc2)CC1,"12.6 µM [falling, partial curve]"
12,COc1cc2ncnc(Nc3cccc(Cl)c3)c2cc1OC,"6.31 µM [falling, partial curve, poor fit] [measured here: IkB-luc green channel]"
13,COc1ccccc1NC(=O)N(Cc1ccco1)Cc1cc2cccc(C)c2[nH]c1=O,"10 µM [falling, partial curve]"
14,COCCn1c(C)cc(O)c(C(c2ccccc2)N2CCN(CCO)CC2)c1=O (configuration not stated),"0.0316 µM [falling, full curve, poor fit]"
15,C=CCc1c(C)nc2nc(SCC(=O)Nc3cccc(Cl)c3)nn2c1C,"12.6 µM [falling, partial curve]"
16,N[C@H](CCC(=O)N[C@H](CSN=O)C(=O)NCC(=O)O)C(=O)O,"12.6 µM [falling, partial curve]"
17,Cc1nc2ccc(S(=O)(=O)N(C)CC(=O)N3CCc4ccccc4C3)cc2s1,"31.6 µM [falling, single point]"
18,Cc1cccc(-n2nnc(C(=O)N3CCc4ccccc4C3)c2N)c1,"25.1 µM [falling, partial curve]"
19,CC(C)CN(CC(C)C)c1nc(-c2ccc(Cl)cc2)nc2ccccc12,"25.1 µM [falling, partial curve]"
20,Cc1c(Cl)cccc1NC(=O)c1ccc2c(c1)nnn2C1CCCC1,"0.126 µM [rising, full curve, poor fit]"
21,CCOC(=O)c1c(C)oc2nc(C)nc(N(CC(C)C)CC(C)C)c12,"12.6 µM [falling, partial curve]"

row,Compound,AC50
1,O=C(CCS(=O)(=O)c1ccccc1)N(Cc1cccnc1)c1nc2c(Cl)cccc2s1,"15.8 µM [falling, single point]"
2,CCc1ccc(NC(=O)c2ccc3c(=O)n4nc(Nc5ccccc5C)sc4nc3c2)cc1,"5.01 µM [falling, partial curve]"
3,O=C(O)c1ccccc1NS(=O)(=O)c1ccc2c3c(cccc13)C(=O)N2,"12.6 µM [falling, partial curve]"
4,O=C(c1ccc(Cn2c(=O)[nH]c3ccccc3c2=O)cc1)N1CCN(c2ccc(F)cc2)CC1,"15.8 µM [falling, partial curve]"
5,Clc1ccc(Nc2c(-c3cccs3)nc3ccc(Cl)cn23)cc1,"0.501 µM [rising, full curve, poor fit]"
6,COc1ccc(-c2noc(N(C)CC(=O)Nc3cccc(C(F)(F)F)c3)n2)cc1,"12.6 µM [falling, partial curve]"
7,Cc1ccc(NC(=O)c2cc(NC(=O)c3ccco3)ccc2N2CCCCC2)cc1,"0.0398 µM [falling, full curve]"
8,CC(=O)c1cccc(NC(=O)CSc2nnc3ccc(-c4ccc(Cl)cc4)nn23)c1,"0.501 µM [rising, full curve, poor fit]"
9,Cc1ccc(Cl)cc1NC(=O)c1sc2nc(-c3ccccc3)cn2c1C,"2.51 µM [rising, partial curve]"
10,Clc1c(CSc2nc3ccccc3o2)nc2sccn12,"0.631 µM [rising, partial curve]"
11,COc1ccccc1CNS(=O)(=O)c1ccc(-c2cc(C(F)(F)F)on2)s1,"31.6 µM [falling, partial curve]"
12,COc1ccc(C2=C(C(C)=O)Sc3nnc(-c4ccc(C)cc4)n3N2C(C)=O)cc1OC,"3.98 µM [falling, partial curve]"
13,COc1ccc(OC)c(C2c3c(-c4ccc(Br)cc4)n[nH]c3C(=O)N2c2ccc(Cl)cc2)c1 (configuration not stated),"3.98 µM [falling, single point]"
14,CCOC(=O)c1c(Nc2cccc(C(=O)OC)c2)nnc(-c2ccccc2)c1-c1ccccc1,"7.94 µM [falling, partial curve]"
15,O=C(Cc1ccccc1)N1CCC(c2nc(-c3ccc(F)cc3)no2)CC1,"15.8 µM [falling, partial curve]"
16,Cc1ccc(NC2c3ncccc3C(=O)N2C2CCCCC2)cc1C (configuration not stated),"20 µM [falling, partial curve]"
17,CCOc1ccccc1-c1noc(CSc2nnc(-c3ccccc3)n2-c2cccc(C)c2)n1,"15.8 µM [falling, partial curve]"
18,c1ccc(CC2CCN(Cc3nc(-c4ccccc4)no3)CC2)cc1,"12.6 µM [falling, partial curve, poor fit]"
19,COc1ccccc1C(=O)Nc1ccc(NC(=O)c2cccs2)cc1,"39.8 µM [falling, single point]"
20,COc1ccc(Nc2cc(C(=O)NCCCN(C)Cc3ccccc3)c3ccccc3n2)c(OC)c1,"12.6 µM [falling, partial curve]"
21,COc1cc(-c2nc3ccccn3c2Nc2ccccc2C)ccc1O,"15.8 µM [falling, partial curve]"

# Two records drawn at random from the list so far:
row,Compound,AC50
13,COc1ccc(OC)c(C2c3c(-c4ccc(Br)cc4)n[nH]c3C(=O)N2c2ccc(Cl)cc2)c1 (configuration not stated),"3.98 µM [falling, single point]"
19,COc1ccccc1C(=O)Nc1ccc(NC(=O)c2cccs2)cc1,"39.8 µM [falling, single point]"

# Next part

row,Compound,AC50
1,CCc1ccc(CN2C(=O)c3ccccc3C2C(=O)NC2CCCCCC2)cc1 (configuration not stated),"20 µM [falling, partial curve]"
2,CC(C)(C)C(=O)Nc1ccc(-c2nc3ccccc3s2)cc1,"0.0501 µM [rising, full curve]"
3,COc1ccccc1OCc1nc2ccccc2[nH]1,"12.6 µM [falling, partial curve]"
4,CCc1ccccc1Nc1nn2c(=O)c3ccc(C(=O)NC4CCC(C)CC4)cc3nc2s1 (configuration not stated),"25.1 µM [falling, single point]"
5,CCOc1cc(C(=O)N(Cc2nc(-c3ccc(C)cc3)no2)C(C)C)cc(OCC)c1OCC,"20 µM [falling, partial curve]"
6,CCc1cnc2c(c1SCc1c(F)cccc1Cl)c(=O)n(C)c(=O)n2C,"12.6 µM [falling, partial curve]"
7,Cc1nn(C(=O)COc2ccc(Cl)cc2)c(C)c1Sc1ccccc1,"12.6 µM [falling, partial curve]"
8,CCOC(=O)c1ccc(NC(=O)CC2C(=O)N(c3ccccc3)C(=O)N2Cc2ccc(C)cc2)cc1 (configuration not stated),"12.6 µM [falling, partial curve]"
9,COc1ccc(C(=O)Nc2cnc3ccccn3c2=O)cc1,"10 µM [falling, partial curve]"
10,CCOC(=O)c1c(NC(=O)c2ccc(S(=O)(=O)N3CCC(C)CC3)cc2)sc2c1CCN(C(C)C)C2,"25.1 µM [falling, single point]"
11,Cc1ccc2[nH]c(=O)c(CN(CCN3CCOCC3)C(=O)Nc3ccc(F)cc3)cc2c1,"25.1 µM [falling, single point]"
12,O=C(NCc1ccc(F)cc1)c1c2c(nc3ccccc13)C(=O)N(C1CCCCC1)C2,"20 µM [falling, partial curve]"
13,Cc1cccc(CCNC(=O)C2CCC(CNS(=O)(=O)c3c(C)cc(C)cc3C)CC2)c1 (configuration not stated),"15.8 µM [falling, partial curve]"
14,O=C(Cc1ccc(NC(=O)N2CCCCc3ccccc32)cc1)NCc1ccccc1Br,"15.8 µM [falling, partial curve]"
15,N#Cc1ccc(OC(=O)c2cc(-c3ccc(Cl)cc3)on2)cc1,"39.8 µM [falling, single point]"
16,Cc1ccc(NC(=O)CN(C)S(=O)(=O)c2ccc3c(c2)n(C)c(=O)c(=O)n3C)c(C)c1,"25.1 µM [falling, single point]"
17,O=C(CSc1nnc(CNc2ccc(Cl)cc2)n1Cc1ccccc1)NCc1ccco1,"15.8 µM [falling, partial curve]"
18,O=C(CSc1nnc2scc(-c3ccccc3)n12)Nc1ccc(Cl)cc1,"39.8 µM [falling, single point]"
19,CCOC(=O)c1ccc(NC(=O)c2ccc(CN3C(=O)CCn4nc(C)cc43)cc2)cc1,"0.2 µM [rising, full curve]"
20,O=C(Cn1c(=O)c2ccccc2n2nncc12)Nc1cccc(F)c1,"2.51 µM [falling, full curve]"
